The source of these data is publication PMC3630112.

No constants are given. Whether binding was seen depends on the method and setting. Binding seen in cells or lysates may run through a third protein. Binding calls can cover weak binding; strength is not graded here. For part of these data: Tags and fused reporters may be left off the sequences shown.

For one experiment, the target named is T1, Flag-tagged Edc3 (mouse) (UniProt Q8K2D3).
T1 sequence: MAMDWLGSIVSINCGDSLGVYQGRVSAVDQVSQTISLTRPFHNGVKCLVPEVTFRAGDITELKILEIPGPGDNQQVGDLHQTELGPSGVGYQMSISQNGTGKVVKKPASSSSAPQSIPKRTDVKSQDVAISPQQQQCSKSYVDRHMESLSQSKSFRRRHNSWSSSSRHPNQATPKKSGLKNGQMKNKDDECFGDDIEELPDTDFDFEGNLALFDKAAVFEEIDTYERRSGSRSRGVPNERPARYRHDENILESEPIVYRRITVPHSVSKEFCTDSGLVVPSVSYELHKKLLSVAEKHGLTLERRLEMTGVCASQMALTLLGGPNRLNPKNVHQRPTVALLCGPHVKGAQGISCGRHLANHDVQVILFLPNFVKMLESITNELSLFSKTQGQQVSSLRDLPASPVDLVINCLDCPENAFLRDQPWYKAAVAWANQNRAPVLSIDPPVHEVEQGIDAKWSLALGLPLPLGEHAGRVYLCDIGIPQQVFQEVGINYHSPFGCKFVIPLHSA
Briefly: co-IP; GFP-tagged Dcp1a (full length or deletion constructs) co-expressed with Flag-Ddx6, Flag-Edc3 or Flag-Dcp2 in HEK 293T cells; IP with anti-Flag M2 beads in NET buffer, 4°C, 2 h; western blot with anti-GFP and anti-Flag.

Another experiment has as its target T2, Flag-tagged Ddx6 (mouse) (UniProt P54823).
T2 sequence: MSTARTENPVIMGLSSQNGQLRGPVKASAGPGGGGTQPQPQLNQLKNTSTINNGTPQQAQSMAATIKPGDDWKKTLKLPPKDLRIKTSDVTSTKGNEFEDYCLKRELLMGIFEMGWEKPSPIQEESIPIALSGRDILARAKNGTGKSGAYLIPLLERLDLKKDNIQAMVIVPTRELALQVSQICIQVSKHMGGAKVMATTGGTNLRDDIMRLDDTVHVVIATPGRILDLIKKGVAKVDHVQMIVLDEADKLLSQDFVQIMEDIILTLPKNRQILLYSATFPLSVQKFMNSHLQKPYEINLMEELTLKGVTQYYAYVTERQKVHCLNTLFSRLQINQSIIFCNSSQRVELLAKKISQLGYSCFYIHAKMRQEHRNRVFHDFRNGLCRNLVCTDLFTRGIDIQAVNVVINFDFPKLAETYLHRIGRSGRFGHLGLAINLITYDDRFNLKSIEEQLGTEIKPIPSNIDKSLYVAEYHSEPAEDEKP
Described as above.

Experiment [1] addresses Flag-Dcp1a(S315D/S319D) (mouse). In words: co-IP; Myc-tagged Dcp2 and Flag-tagged wild-type or mutant Dcp1a co-expressed in HEK 293T cells (Fig. S3: also with HA-tagged CA MAPKK1); IP by anti-Flag; western blot with anti-Myc, anti-Flag, anti-Edc3, anti-Edc4.
Experiment [2] deals with Flag-Dcp1a(S315A/S319A) (mouse). The description is as above.
Experiment [3] deals with Flag-tagged Dcp1a (wild type) (mouse). The description is as above.
For experiment [4] the target is unchanged. In words: co-IP; Flag-tagged Dcp1a co-expressed with HA-tagged CA or DN MAPKK1 in HEK 293T cells; IP with M2 beads; western blot with anti-Ddx6, anti-Edc3, anti-Edc4 (endogenous proteins).
Experiment [5] has as its target endogenous mouse Dcp1a (3T3-L1 cells) (mouse (endogenous in 3T3-L1)). Briefly: co-IP; endogenous proteins; extracts of 3T3-L1 cells, control or induced to differentiate for 1 h, with or without 20 µM U0126; IP with anti-Dcp1a and protein A-Sepharose; western blot with anti-Ddx6, anti-Edc3, anti-Edc4, anti-HuR.

On to “GFP-Dcp1a(111–274) (mouse) (domain or fragment)”, for which the binding entry in the experiment with Flag-tagged Edc3 (mouse) and with Flag-tagged Ddx6 (mouse) was “binds” throughout.

Regarding “GFP-Dcp1a Δ111–274 mutant (mouse) (domain or fragment)”, the binding entry with Flag-tagged Edc3 (mouse) and with Flag-tagged Ddx6 (mouse) was “no binding” throughout.

B1: endogenous Edc4 (HEK 293T cells) (protein, UniProt Q6P2E9 1-1401)
chain: MASCASIDIEDATQHLRDILKLDRPAGGPSAESPRPSSAYNGDLNGLLVPDPLCSGDSTSANKTGLRTMPPINLQEKQVICLSGDDSSTCIGILAKEVEIVASSDSSISSKARGSNKVKIQPVAKYDWEQKYYYGNLIAVSNSFLAYAIRAANNGSAMVRVISVSTSERTLLKGFTGSVADLAFAHLNSPQLACLDEAGNLFVWRLALVNGKIQEEILVHIRQPEGTPLNHFRRIIWCPFIPEESEDCCEESSPTVALLHEDRAEVWDLDMLRSSHSTWPVDVSQIKQGFIVVKGHSTCLSEGALSPDGTVLATASHDGYVKFWQIYIEGQDEPRCLHEWKPHDGRPLSCLLFCDNHKKQDPDVPFWRFLITGADQNRELKMWCTVSWTCLQTIRFSPDIFSSVSVPPSLKVCLDLSAEYLILSDVQRKVLYVMELLQNQEEGHACFSSISEFLLTHPVLSFGIQVVSRCRLRHTEVLPAEEENDSLGADGTHGAGAMESAAGVLIKLFCVHTKALQDVQIRFQPQLNPDVVAPLPTHTAHEDFTFGESRPELGSEGLGSAAHGSQPDLRRIVELPAPADFLSLSSETKPKLMTPDAFMTPSASLQQITASPSSSSSGSSSSSSSSSSSLTAVSAMSSTSAVDPSLTRPPEELTLSPKLQLDGSLTMSSSGSLQASPRGLLPGLLPAPADKLTPKGPGQVPTATSALSLELQEVEPLGLPQASPSRTRSPDVISSASTALSQDIPEIASEALSRGFGSSAPEGLEPDSMASAASALHLLSPRPRPGPELGPQLGLDGGPGDGDRHNTPSLLEAALTQEASTPDSQVWPTAPDITRETCSTLAESPRNGLQEKHKSLAFHRPPYHLLQQRDSQDASAEQSDHDDEVASLASASGGFGTKVPAPRLPAKDWKTKGSPRTSPKLKRKSKKDDGDAAMGSRLTEHQVAEPPEDWPALIWQQQRELAELRHSQEELLQRLCTQLEGLQSTVTGHVERALETRHEQEQRRLERALAEGQQRGGQLQEQLTQQLSQALSSAVAGRLERSIRDEIKKTVPPCVSRSLEPMAGQLSNSVATKLTAVEGSMKENISKLLKSKNLTDAIARAAADTLQGPMQAAYREAFQSVVLPAFEKSCQAMFQQINDSFRLGTQEYLQQLESHMKSRKAREQEAREPVLAQLRGLVSTLQSATEQMAATVAGSVRAEVQHQLHVAVGSLQESILAQVQRIVKGEVSVALKEQQAAVTSSIMQAMRSAAGTPVPSAHLDCQAQQAHILQLLQQGHLNQAFQQALTAADLNLVLYVCETVDPAQVFGQPPCPLSQPVLLSLIQQLASDLGTRTDLKLSYLEEAVMHLDHSDPITRDHMGSVMAQVRQKLFQFLQAEPHNSLGKAARRLSLMLHGLVTPSLP
Regarding B1, the binding result in experiment [1], in experiment [2], in experiment [3] and in experiment [4] was “binds” throughout.

B2: endogenous Edc3 (3T3-L1 cells) (protein, UniProt Q8K2D3 1-508)
chain: MAMDWLGSIVSINCGDSLGVYQGRVSAVDQVSQTISLTRPFHNGVKCLVPEVTFRAGDITELKILEIPGPGDNQQVGDLHQTELGPSGVGYQMSISQNGTGKVVKKPASSSSAPQSIPKRTDVKSQDVAISPQQQQCSKSYVDRHMESLSQSKSFRRRHNSWSSSSRHPNQATPKKSGLKNGQMKNKDDECFGDDIEELPDTDFDFEGNLALFDKAAVFEEIDTYERRSGSRSRGVPNERPARYRHDENILESEPIVYRRITVPHSVSKEFCTDSGLVVPSVSYELHKKLLSVAEKHGLTLERRLEMTGVCASQMALTLLGGPNRLNPKNVHQRPTVALLCGPHVKGAQGISCGRHLANHDVQVILFLPNFVKMLESITNELSLFSKTQGQQVSSLRDLPASPVDLVINCLDCPENAFLRDQPWYKAAVAWANQNRAPVLSIDPPVHEVEQGIDAKWSLALGLPLPLGEHAGRVYLCDIGIPQQVFQEVGINYHSPFGCKFVIPLHSA
For B2, the binding entry in experiment [5] is reported as “binds”.
